For some assays here: Negatives hold for the conditions tested.

The first series concerns the target prothrombin (Homo sapiens) (UniProt P00734). Description: filter binding. The note with it: 50 nM prothrombin; purified native protein; protein details: Athens Research; single-stranded DNA.
“TCCCATGTGTTAGATCCGTGTGGTTGGACTGGGTGGCTGAGGATCGATC [AMX(398)_C3]” came in with a binding signal of 3.04 % bound. With “TCCCGACTTTAGATCCGTGTTGGATGGCCTGGGTGGCTGAGGATCGATC [AMX(399)_H2]”, the binding signal was determined as 2.73 % bound. In the case of “TCCCGAGAGATTCAAAAGGGACTGGGCGGTTGGGTGGCTGAGGATCGATC [AMX(399)_H4]”, the binding signal was 3.66 % bound.

The next series has as its system thrombin (alpha-thrombin) (Homo sapiens). Nature of the series: filter binding. The note with it: 10 nM thrombin, DPBS Ca Mg, BSA; purified native protein; protein details: Enzyme Research Labs; single-stranded DNA.
Take “TCCCACGCATCGATCCTATATGGGTGGCATGGGGTGGCTGAGGATCGATC [AMX(395)_A5]”: the binding signal came out at 3.29 % bound.

Still in this series, the particulars now being: 10 nM thrombin; purified native protein; protein details: Enzyme Research Labs; single-stranded DNA.
Sequence “TCCCAAGCGATCTGTAAGGGATGGGGTTGCGGGTGGCTGAGGATCGATC [AMX(395)_C3]” came in with a binding signal of 3.57 % bound. Same read-out and setting: to “TCCCGCAGTATCGGTCTGGTTGGTTGGATGGGGTGGCTGAGGATCGATC [AMX(395)_H10]” belongs 2.8 % bound.

Still in this series, the particulars now being: 2'-OMe A17, rest DNA; NB, non binder; purified native protein; protein details: Enzyme Research Labs; synthetic backbone; variant of ARC2169.
Regarding “ACTGCCTAGGTTGGGTAGGGTGGTGGCAGT [ARC2629]”, the binding result is “no binding”.

The same series, now with this note: 2'-OMe G15, rest DNA; NB, non binder; purified native protein; protein details: Enzyme Research Labs; synthetic backbone; variant of ARC2169.
For “ACTGCCTAGGTTGGGTAGGGTGGTGGCAGT [ARC2627]”, the binding result is “no binding”.

The series is the same for the next values; noted with them: 2'-OMe G20, rest DNA; NB, non binder; purified native protein; protein details: Enzyme Research Labs; synthetic backbone; variant of ARC2169.
Regarding “ACTGCCTAGGTTGGGTAGGGTGGTGGCAGT [ARC2632]”, the binding result is “no binding”.

Another series relates to thrombin (endogenous, clotting assay in plasma or whole blood) (Homo sapiens). Nature of the series: inhibition of the protein. The note with it: PT at 10 uM aptamer, baseline ~13 s; protein in an extract; single-stranded DNA.
“TCCCATCGATCTGGGGTAATTTACTGGGTCGGGTGGCTGAGGATCGATC [AMX(453)_A6]”: the functional effect of the aptamer was found to be 12.8 s.

Still in this series, the particulars now being: PT at 10 uM, no prolongation (background about 13 s); protein in an extract; single-stranded DNA.
The sequence “TCCCGTAATCGAGCCTGGTATTGTTGGTCTGGGTGGCTGAGGATCGATC [AMX(398)_A4]” gave a functional effect of the aptamer of 11 s.

Still in this series, the particulars now being: PT at 10 uM, no prolongation; clone printed as C9 for SEQ 138; protein in an extract; single-stranded DNA.
For “TCCCGTCGATCAGGGGTAATTTGCTGGTGGTGGGTGGCTGAGGATCGATC [AMX(399)_C8]”, the functional effect of the aptamer stood at 10.7 s.

The same series, now with this note: PT at 10 uM, no prolongation; protein in an extract; single-stranded DNA.
As to “TCCCAACGATCTGTGGTTTTTTTGTTCTGGGTGGCTGAGGATCGATC [AMX(398)_C1]”, the functional effect of the aptamer amounted to 11.4 s. In the case of “TCCCAATCGGTCCTGGTAATATATTGGTCGGGGTGGCTGAGGATCGATC [AMX(399)_H3]”, the functional effect of the aptamer is 10.9 s. In turn, “TCCCACGATCCGGGGTGTCTTTCGTGGGCTGGGTGGCTGAGGATCGATC [AMX(399)_E1]” showed a functional effect of the aptamer of 10.8 s.

For “TCCCAGAGAGCCGGGGTATAATTGTGGTGTGGGTGGCTGAGGATCGATC [AMX(399)_D11]”, the functional effect of the aptamer was determined as 13.2 s.

Consider “TCCCATCGATCAGTGGTGGCTTGGCTGGTTTGGGTGGCTGAGGATCGATC [AMX(399)_G6]”, for which the functional effect of the aptamer came to 11.1 s. The same measure, in the same setting: with “TCCCATCGATCTGTGGTGGTTTTGTGGTTTGGGTGGCTGAGGATCGATC [AMX(399)_D10]” the figure was 10.7 s; with “TCCCATCGGTCCGGGGTAATTTACTGGGTCGGGTGGCTGAGGATCGATC [AMX(398)_A8]”, 11.2 s; with “TCCCGAGTGATCCGGGGTGTTTTTTTGGGTTGGGTGGCTGAGGATCGATC [AMX(398)_E3]”, 11.1 s. “TCCCGATCGCTGTCCTAGGATGGGTAGGGTGGTGGCTGAGGATCGATC [AMX(399)_D2]” showed a functional effect of the aptamer of 12.5 s. Still for that read-out and setting: with “TCCCGATCGTAGTCCTGGTATTGTTGGTCTGGGTGGCTGAGGATCGATC [AMX(398)_F12]” the figure was 10.8 s; with “TCCCGGATCCTCGTGGGTATTGTTGGGTTGGGTGGCTGAGGATCGATC [AMX(399)_G12]”, 13.4 s. “TCCCGGATCTGTGGTAGGTTTGTTGGGTTGGGTGGCTGAGGATCGATC [AMX(398)_E12]”: the functional effect of the aptamer came to 10.7 s. As for “TCCCGGTTGTCGATTCTGGTATTGTTGGGCTGGGTGGCTGAGGATCGATC [AMX(399)_H7]”, the functional effect of the aptamer amounted to 10.9 s. Still for that read-out and setting: to “TCCCGTAATCGAGCCTGGTATTGTTGGTCTGGGTGGCTGAGGATCGATC [AMX(398)_B2]” belongs 11 s. “TCCCGTAATCGAGCTTGGTATTGTTGGTCTGGGTGGCTGAGGATCGATC [AMX(399)_B3]” returned a functional effect of the aptamer of 10.9 s. Regarding “TCCCGTTCGAGTCCTGGTGTTTTATTGGCCTGGGTGGCTGAGGATCGATC [AMX(399)_D5]”, the functional effect of the aptamer came out at 10.5 s. “TCCCTAGATCGGGTCCTGGTAGTGTTTCTGGGTGGCTGAGGATCGATC [AMX(399)_F5]”: the functional effect of the aptamer turned out to be 11 s. In turn, “TCCCTATCGATTGCTCCTAGGATGGGTAGGGTGGTGGCTGAGGATCGATC [AMX(399)_A2]” had a functional effect of the aptamer of 11.3 s. “TCCCTATGGATCCGGGGTACGTTAGTTCTGGGTGGCTGAGGATCGATC [AMX(398)_H6]”: the functional effect of the aptamer turned out to be 11 s. In turn, “TCCCTATGGATTCGGGGTACGTTAGTTCTGGGTGGCTGAGGATCGATC [AMX(399)_F11]” had a functional effect of the aptamer of 11.2 s. Regarding “TCCCTGGAGATCCGGGGTAGTATACTGGTTTGGGTGGCTGAGGATCGATC [AMX(398)_A12]”, the functional effect of the aptamer was determined as 12 s. On the same count and under the same terms, with “TCCCTGTCGTTCCGTGGTGTTTTTATGGGCTGGGTGGCTGAGGATCGATC [AMX(398)_G6]” the figure was 10.7 s; with “TCCCTTGTCGATTCTGGTATGTTTTGGTCCGGGTGGCTGAGGATCGATC [AMX(398)_D7]”, 11.4 s. With “TCCTGTCGATCGGTACGTTTTCGTTTCTGGGTGGCTGAGGATCGATC [AMX(398)_C11]”, the functional effect of the aptamer is 11.3 s. “TCTCATTCGTTCCGGGGTATTTAGTGGGTCGGGTGGCTGAGGATCGATC [AMX(399)_C10]” had a functional effect of the aptamer of 10.9 s.

Still in this series, the particulars now being: PT at 10 uM, parent 300 s; protein in an extract; single-stranded DNA.
As for ACTGCCTAGGTTGGGTAGGGTGGT [Minimer 6], the functional effect of the aptamer is 12.2 s. For the sequence “GGCGATACTGCTTCGCAGGGTGGTGGCTGAGGATCGCC [Minimer 12]”, the functional effect of the aptamer is 10.3 s.

As to GGTAGGGTGGTGG [Minimer 4], the functional effect of the aptamer was found to be 11.4 s.

Staying with this series, now noted: PT at 10 uM, parent 300 s; protein in an extract; single-stranded DNA; variant of AMX(398)_C8 (ARC2027).
Turning to “GGCCGATCAGGCTGCTGAGGATCGGCC [Minimer 10]”, the functional effect of the aptamer was determined as 11 s.

Consider “GGCGATACTGCCCAGGTTGGGCAGGGTGGTGGCTGAGGATCGCC [Minimer 9]”, for which the functional effect of the aptamer stood at 10.6 s.

With “GGCGATACTGCCTTTGGTAGGGTGGTGGCTGAGGATCGCC [Minimer 8]”, the functional effect of the aptamer stood at 10.1 s.

Staying with this series, now noted: PT at 10 uM; name printed AMX(453)_38; protein in an extract; single-stranded DNA.
In the case of “TCCTATGATCGAATGACTAAGGGGTGGGGTGGGTGGCTGAGGATCGATC [AMX(453)_E8]”, the functional effect of the aptamer was 13.1 s.

The same series, now with this note: PT at 10 uM; protein in an extract; single-stranded DNA.
“ACTGCCTAGGTTGGGTAGGGCGGTGGCAGT [ARC2169.5]”: the functional effect of the aptamer was 12.8 s. Consider “ACTGCCTAGGTTGGGTAGTGTGGTGGCAGT [ARC2169.3]”, for which the functional effect of the aptamer was 11 s.

With “CCCTTGGTATTGTTGGTCTGGGTGGCTGAGCGG [Minimer 1]”, the functional effect of the aptamer amounted to 11.5 s.

With “TCCCATCGAGCCGGGGTATGATTATGGGTGGGGTGGCTGAGGATCGATC [AMX(453)_B8]”, the functional effect of the aptamer was determined as 11.9 s.

For the sequence “TCCCATCGATTCGGGGTTTTTTAGTGGTATGGGTGGCTGAGGATCGATC [AMX(454)_D5]”, the functional effect of the aptamer was determined as 13 s. Sequence “TCCCATCGATTTGGGGTAGTTCTATTGGGTTGGGTGGCTGAGGATCGATC [AMX(454)_D6]” showed a functional effect of the aptamer of 11.4 s. “TCCCATTAGGTCCGTATACTGGTGAGGTTGGGTGGCTGAGGATCGATC [AMX(454)_H7]” yielded a functional effect of the aptamer of 12.1 s. In turn, “TCCCGATCGGTCTGGGGTGTGTTCATGGTTTGGGTGGCTGAGGATCGATC [AMX(453)_B12]” came in with a functional effect of the aptamer of 12.8 s. The sequence “TCCCGATCGTTCCGTGGGGTAGTGTTGGTTGGGGTGGCTGAGGATCGATC [AMX(454)_G2]” registered a functional effect of the aptamer of 15.6 s. For the sequence “TCCCGATTGATCTGAGGGGTATTGTTGGCGTGGGTGGCTGAGGATCGATC [AMX(453)_D12]”, the functional effect of the aptamer was 12.7 s. “TCCCGGATCGTTTTGCTTCAAAGGTTGGGTTGGGTGGCTGAGGATCGATC [AMX(454)_B7]” had a functional effect of the aptamer of 12.2 s. On to “TCCCGGGTCGTATCCGTTTGTGGGTGGTCTGGGTGGCTGAGGATCGATC [AMX(453)_E10]”, for which the functional effect of the aptamer stood at 11.8 s. “TCCCGTAATCGAGTCTGGTATTGTTGGTCTGGGTGGCTGAGGATCGATC [AMX(453)_E4]” showed a functional effect of the aptamer of 15.9 s.

Sequence “TCCCGTAATTGAGCCTGGTATTGTTGGTCTGGGTGGCTGAGGATCGATC [AMX(453)_E12]” showed a functional effect of the aptamer of 12.2 s.

Regarding “TCCCGTATCGAGCTTGGTATTGTTGGTCTGGGTGGCTGAGGATCGATC [AMX(453)_G11]”, the functional effect of the aptamer was 12.2 s. Take “TCCCTATGGATTCGGGGTACGTTAGTGGTCTGGGTGGCTGAGGATCGATC [AMX(454)_G6]”: the functional effect of the aptamer is 12.5 s. Same read-out and setting: with “TCCCTCGATCCGGGGTGTCTTTCGTGGGCTGGGTGGCTGAGGATCGATC [AMX(454)_D12]” the figure was 12 s; with “TCCCTCGATCTAAGGTGTTTATTATGGTGTGGGTGGCTGAGGATCGATC [AMX(454)_F7]”, 12.7 s; with “TCCCTGTTGTTCCGGGGTGGTTTAATGGTTTGGGTGGCTGAGGATCGATC [AMX(454)_H6]”, 11.5 s. In turn, “TCCCTTTTGACCTGCAAGAACGGTTGGTGTGGGTGGCTGAGGATCGATC [AMX(453)_H11]” registered a functional effect of the aptamer of 15.6 s.

The same series, now with this note: PT at 10 uM; protein in an extract; single-stranded DNA; variant of AMX(398)_A4.
Sequence “CCGCCTGGTATTGTTGGTCTGGGTGGCTGAGGCGG [Minimer 2]” came in with a functional effect of the aptamer of 12.2 s.

The record behind these values is patent US20090221680.
